Source: article PMC9332313, “Folding and Binding Mechanisms of the SH2 Domain from Crkl” (Biomolecules, 2022)
No constants are given. Whether binding was seen depends on the method and setting. Some entries that bind do so weakly or less than the wild type.

By UniProt entry, the sequences of proteins in these tests, tags left out. Residues count along the entry.
UniProt P46109, residues 1-111: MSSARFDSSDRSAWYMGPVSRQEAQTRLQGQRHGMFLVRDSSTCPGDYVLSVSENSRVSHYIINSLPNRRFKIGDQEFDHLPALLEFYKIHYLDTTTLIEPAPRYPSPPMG

Molecular target: T1, dansylated Pax_(112–123) peptide (Dans-GEEEHV-pY-SFPNK)
T1 sequence (peptide, phosphotyrosine (pY, seventh residue of the peptide); dansyl on the N-terminus): GEEEHVYSFPNK
Assay: stopped-flow fluorescence kinetics (FRET); ionic strength dependence: dansyl-Pax112-123 constant at 2 μM mixed with Crkl-SH2 2 to 10 μM; koff by displacement of the preincubated 2 µM complex with non-dansylated Pax112-123 (30 μM); 283 K; 50 mM sodium-HEPES pH 7.5 with 150 mM, 300 mM, 500 mM or 1 M NaCl; both purified

## SH2 domain of Crkl protein (residues 1-111), wild type (from UniProt P46109 1-111) (domain or fragment)
  binding: binds
